From paper PMC8223509

Protein sequences, listed by entry. Tags and fused reporters are not part of them. Residues count along the entry.
UniProt P09758, residues 27-323: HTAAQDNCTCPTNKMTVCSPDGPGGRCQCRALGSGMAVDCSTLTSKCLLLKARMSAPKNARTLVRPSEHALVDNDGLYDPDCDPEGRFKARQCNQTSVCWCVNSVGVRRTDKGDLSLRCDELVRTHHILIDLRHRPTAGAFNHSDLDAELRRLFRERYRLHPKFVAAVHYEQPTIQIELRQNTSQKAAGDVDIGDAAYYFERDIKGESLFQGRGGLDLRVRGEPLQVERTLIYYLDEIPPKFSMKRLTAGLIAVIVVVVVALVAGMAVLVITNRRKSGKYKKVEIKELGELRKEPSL
UniProt Q9ULV4: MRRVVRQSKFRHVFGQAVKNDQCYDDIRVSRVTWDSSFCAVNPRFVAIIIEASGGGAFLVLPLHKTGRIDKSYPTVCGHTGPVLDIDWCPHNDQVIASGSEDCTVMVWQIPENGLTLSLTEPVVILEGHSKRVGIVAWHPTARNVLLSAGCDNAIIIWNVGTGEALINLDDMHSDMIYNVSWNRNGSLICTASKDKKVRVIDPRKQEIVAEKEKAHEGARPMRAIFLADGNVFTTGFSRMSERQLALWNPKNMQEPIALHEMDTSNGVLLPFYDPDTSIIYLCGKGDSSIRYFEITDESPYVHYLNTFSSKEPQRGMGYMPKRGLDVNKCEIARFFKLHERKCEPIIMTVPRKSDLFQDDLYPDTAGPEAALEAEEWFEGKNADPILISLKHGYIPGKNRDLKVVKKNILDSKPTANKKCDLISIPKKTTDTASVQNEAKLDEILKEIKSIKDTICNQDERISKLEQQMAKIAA

Target: Trophoblast cell surface protein 2 (human) (UniProt P09758)
Experiment: affinity purification with mass spectrometry; anti-Trop2 IgG (CST #90540) on Dynabeads, protein sample of 293T cells overexpressing Trop2, 10 min at room temperature, washed with PBST three times, eluted with glycine pH 2.8; trypsin digest, TripleTOF 5600+, MaxQuant, peptide and protein FDR <=0.01

binding: binds
Molecule: coronin-like actin-binding protein 1C (from UniProt Q9ULV4 1-474)

binding: binds
B1: PLOD2 (protein, UniProt O00469 26-737)
chain: ADSEKPSSIPTDKLLVITVATKESDGFHRFMQSAKYFNYTVKVLGQGEEWRGGDGINSIGGGQKVRLMKEVMEHYADQDDLVVMFTECFDVIFAGGPEEVLKKFQKANHKVVFAADGILWPDKRLADKYPVVHIGKRYLNSGGFIGYAPYVNRIVQQWNLQDNDDDQLFYTKVYIDPLKREAINITLDHKCKIFQTLNGAVDEVVLKFENGKARAKNTFYETLPVAINGNGPTKILLNYFGNYVPNSWTQDNGCTLCEFDTVDLSAVDVHPNVSIGVFIEQPTPFLPRFLDILLTLDYPKEALKLFIHNKEVYHEKDIKVFFDKAKHEIKTIKIVGPEENLSQAEARNMGMDFCRQDEKCDYYFSVDADVVLTNPRTLKILIEQNRKIIAPLVTRHGKLWSNFWGALSPDGYYARSEDYVDIVQGNRVGVWNVPYMANVYLIKGKTLRSEMNERNYFVRDKLDPDMALCRNAREMGVFMYISNRHEFGRLLSTANYNTSHYNNDLWQIFENPVDWKEKYINRDYSKIFTENIVEQPCPDVFWFPIFSEKACDELVEEMEHYGKWSGGKHHDSRISGGYENVPTDDIHMKQVDLENVWLHFIREFIAPVTLKVFAGYYTKGFALLNFVVKYSPERQRSLRPHHDASTFTINIALNNVGEDFQGGGCKFLRYNCSIESPRKGWSFMHPGRLTHLHEGLPVKNGTRYIAVSFIDP

binding: binds
B2: CPD (protein, UniProt O75976 32-1380)
chain: AHIKKAEATTTTTSAGAEAAEGQFDRYYHEEELESALREAAAAGLPGLARLFSIGRSVEGRPLWVLRLTAGLGSLIPEGDAGPDAAGPDAAGPLLPGRPQVKLVGNMHGDETVSRQVLIYLARELAAGYRRGDPRLVRLLNTTDVYLLPSLNPDGFERAREGDCGFGDGGPSGASGRDNSRGRDLNRSFPDQFSTGEPPALDEVPEVRALIEWIRRNKFVLSGNLHGGSVVASYPFDDSPEHKATGIYSKTSDDEVFKYLAKAYASNHPIMKTGEPHCPGDEDETFKDGITNGAHWYDVEGGMQDYNYVWANCFEITLELSCCKYPPASQLRQEWENNRESLITLIEKVHIGVKGFVKDSITGSGLENATISVAGINHNITTGRFGDFYRLLVPGTYNLTVVLTGYMPLTVTNVVVKEGPATEVDFSLRPTVTSVIPDTTEAVSTASTVAIPNILSGTSSSYQPIQPKDFHHHHFPDMEIFLRRFANEYPNITRLYSLGKSVESRELYVMEISDNPGVHEPGEPEFKYIGNMHGNEVVGRELLLNLIEYLCKNFGTDPEVTDLVHNTRIHLMPSMNPDGYEKSQEGDSISVIGRNNSNNFDLNRNFPDQFVQITDPTQPETIAVMSWMKSYPFVLSANLHGGSLVVNYPFDDDEQGLATYSKSPDDAVFQQIALSYSKENSQMFQGRPCKNMYPNEYFPHGITNGASWYNVPGGMQDWNYLQTNCFEVTIELGCVKYPLEKELPNFWEQNRRSLIQFMKQVHQGVRGFVLDATDGRGILNATISVAEINHPVTTYKTGDYWRLLVPGTYKITASARGYNPVTKNVTVKSEGAIQVNFTLVRSSTDSNNESKKGKGASSSTNDASDPTTKEFETLIKDLSAENGLESLMLRSSSNLALALYRYHSYKDLSEFLRGLVMNYPHITNLTNLGQSTEYRHIWSLEISNKPNVSEPEEPKIRFVAGIHGNAPVGTELLLALAEFLCLNYKKNPAVTQLVDRTRIVIVPSLNPDGRERAQEKDCTSKIGQTNARGKDLDTDFTNNASQPETKAIIENLIQKQDFSLSVALDGGSMLVTYPYDKPVQTVENKETLKHLASLYANNHPSMHMGQPSCPNKSDENIPGGVMRGAEWHSHLGSMKDYSVTYGHCPEITVYTSCCYFPSAARLPSLWADNKRSLLSMLVEVHKGVHGFVKDKTGKPISKAVIVLNEGIKVQTKEGGYFHVLLAPGVHNIIAIADGYQQQHSQVFVHHDAASSVVIVFDTDNRIFGLPRELVVTVSGATMSALILTACIIWCICSIKSNRHKDGFHRLRQHHDEYEDEIRMMSTGSKKSLLSHEFQDETDTEEETLYSSKH

These are yes or no findings as the source states them, for the method shown. In cells and extracts the contact can be indirect. Here binding means that the protein was enriched with, or labelled near, the bait; the list need not be complete. One block for each molecule: values may come before it.
